{"source": "PubChem BioAssay AID1224826, NIAID – 2016", "assay": "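Knock-downs that raise or lower Tnf reporter signal after endotoxin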 (primary screen)", "cell system": "RAW264.7 G9 macrophages from mouse bearing reporters for p65 (GFP) and the Tnf promoter (mCherry)", "knock-down reagent": "siRNA pool against mouse genes, 100 nM", "duration": "16 h of LPS stimulation, after 2 days of siRNA transfection", "treatment": "bacterial lipopolysaccharide (Salmonella minnesota R595), 10 ng/ml", "detection": "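Imaged Tnf reporter mCherry in nuclei, minus background, normalised per plate to the median and expressed as robust z-scores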", "reading the numbers": "Tnf reporter robust z-score: higher = stronger Tnf promoter reporter signal after LPS", "rule for the call": "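a well counts as active at a score of -1.3 or below (Tlr4 knock-down control median) or above 3 (raised signal); controls and wells holding fewer than 50 cells are excluded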", "calls": "active = Tnf reporter clearly lowered or raised; inactive = no clear change in Tnf reporter", "note": "This is a random part of about 17,000 deposited reagents. Of all reagents, about 1,110 (6.6%) are marked active. 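Active means lowered or raised reporter signal; replicate intensities are raw and not normalised per plate.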 Not all columns of the deposit are shown. Reagent sequences are not shown."}
{"gene symbol":"Rpl27 (GeneID 19942)","Tnf reporter robust z-score":-1.27,"fewer than 50 cells in well":"enough cells in well","activity call":"inactive"}
{"gene symbol":"Or8g2b (GeneID 258607)","fewer than 50 cells in well":"fewer than 50 cells per well; well left out of calls","activity call":"inactive"}
{"gene symbol":"Chpf2 (GeneID 100910)","fewer than 50 cells in well":"fewer than 50 cells per well; well left out of calls","activity call":"inactive"}
{"gene symbol":"Ndp (GeneID 17986)","Tnf reporter robust z-score":-0.3,"fewer than 50 cells in well":"enough cells in well","activity call":"inactive"}
{"gene symbol":"Frmd4b (GeneID 232288)","Tnf reporter robust z-score":1.23,"fewer than 50 cells in well":"enough cells in well","activity call":"inactive"}
{"gene symbol":"Or12e9 (GeneID 258345)","Tnf reporter robust z-score":-0.78,"fewer than 50 cells in well":"enough cells in well","activity call":"inactive"}
{"gene symbol":"Fam98a (GeneID 72722)","Tnf reporter robust z-score":0.69,"fewer than 50 cells in well":"enough cells in well","activity call":"inactive"}
{"gene symbol":"Trav13-5 (GeneID 219060)","Tnf reporter robust z-score":-1.14,"fewer than 50 cells in well":"enough cells in well","activity call":"inactive"}

Laid out differently: entries from further up.
| gene symbol | Tnf reporter robust z-score | fewer than 50 cells in well | activity call |
| --- | --- | --- | --- |
| Chpf2 (GeneID 100910) | – | fewer than 50 cells per well; well left out of calls | inactive |
| Ndp (GeneID 17986) | -0.3 | enough cells in well | inactive |
| Frmd4b (GeneID 232288) | 1.23 | enough cells in well | inactive |

The listing continues:
{"gene symbol":"Pi4k2b (GeneID 67073)","Tnf reporter robust z-score":-0.84,"fewer than 50 cells in well":"enough cells in well","activity call":"inactive"}
{"gene symbol":"Mrpl33 (GeneID 66845)","Tnf reporter robust z-score":-1.13,"fewer than 50 cells in well":"enough cells in well","activity call":"inactive"}
{"gene symbol":"Il15 (GeneID 16168)","Tnf reporter robust z-score":-0.29,"fewer than 50 cells in well":"enough cells in well","activity call":"inactive"}
{"gene symbol":"Dtd2 (GeneID 328092)","fewer than 50 cells in well":"fewer than 50 cells per well; well left out of calls","activity call":"inactive"}
{"gene symbol":"Slc51b (GeneID 330962)","Tnf reporter robust z-score":0.42,"fewer than 50 cells in well":"enough cells in well","activity call":"inactive"}
{"gene symbol":"Mbnl2 (GeneID 105559)","Tnf reporter robust z-score":-1.67,"fewer than 50 cells in well":"enough cells in well","activity call":"active"}
{"gene symbol":"Ctsl (GeneID 13039)","Tnf reporter robust z-score":0.04,"fewer than 50 cells in well":"enough cells in well","activity call":"inactive"}
{"gene symbol":"Eny2 (GeneID 223527)","fewer than 50 cells in well":"fewer than 50 cells per well; well left out of calls","activity call":"inactive"}
{"gene symbol":"Fhl5 (GeneID 57756)","Tnf reporter robust z-score":0.18,"fewer than 50 cells in well":"enough cells in well","activity call":"inactive"}
{"gene symbol":"Rftn1 (GeneID 76438)","fewer than 50 cells in well":"fewer than 50 cells per well; well left out of calls","activity call":"inactive"}
{"gene symbol":"Cmbl (GeneID 69574)","Tnf reporter robust z-score":0.74,"fewer than 50 cells in well":"enough cells in well","activity call":"inactive"}
{"gene symbol":"Wdr4 (GeneID 57773)","Tnf reporter robust z-score":-0.56,"fewer than 50 cells in well":"enough cells in well","activity call":"inactive"}
{"gene symbol":"Nbn (GeneID 27354)","Tnf reporter robust z-score":-1.11,"fewer than 50 cells in well":"enough cells in well","activity call":"inactive"}
